Our source for the AC50 values is PubChem BioAssay (NCATS).

SMILES strings stand for the structures. Values joined by “and” are separate entries in the source; they are usually repeats but may differ in a detail not shown here. Identical values can stand only once. The list shows a part of the results. Shown are side measurements of this screen, not its main read-out; they come without a call. Most of these compounds were active or inconclusive in the main read-out, so they are no random draw. Words in brackets tell the shape of the fitted curve; partial curves, single points and poor fits give uncertain potencies.

This assay can be described thus: qHTS assay for small molecule antagonists of peroxisome proliferator-activated receptor gamma signaling (AID 588537). The settings on record: HEK293 PPARg-UAS-bla, beta-lactamase ratio, antagonist mode; measured here: W460 blue channel. A digest of the protocol: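 We seeded GeneBLAzer HEK293 reporter cells at 3000 per well, allowed 6-6.5 h attachment at 37 C, then co-treated with test compound titrations and 50 nM rosiglitazone overnight (16 h). Inhibition was quantified from 460/530 nm emission ratios.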
Background: qHTS replaces the single test concentration by a dilution series.
The term AC50 denotes the concentration giving half of the maximal activity seen. With `C/C=C(/C)C#N`, the AC50 was 70.8 µM [rising, single point]. With `C=CCOc1nc(OCC=C)nc(OCC=C)n1` the figure was 0.00316 µM [falling, full curve, poor fit]; with `C=C(C)[C@H]1CC=C(C)C(=O)C1`, 70.8 µM [rising, single point] and 316 nM [rising, full curve, poor fit]. Regarding `CC(=O)Nc1ccc(C)cc1`, the concentration at half-maximal activity (AC50) was 50.1 µM [rising, single point]. For the compound `O=Cc1ccc(CO)o1`, the AC50 was 70.8 µM [rising, single point].
